PubChem BioAssay AID2685 (National Center for Advancing Translational Sciences (NCATS), 2010)
This is one part of the list. Shown are side measurements of this screen, not its main read-out; they come without a call. Most of these compounds were active or inconclusive in the main read-out, so they are no random draw. Words in brackets tell the shape of the fitted curve; partial curves, single points and poor fits give uncertain potencies.

Assay: qHTS Assay for Lipid Storage Modulators in Drosophila S3 Cells;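 for cell number change: cells counted by Cell Tracker Red CMTPX staining in the red channel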
Settings: BODIPY lipid droplet fluorescence, 18-24 h; for cell number change: measured here: cell count max response, cells fed with added oleic acid
How it was run: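 Drosophila S3 cells loaded with oleic acid (400 uM, as added) and compounds at several concentrations; lipid droplets imaged by 488-nm laser-scanning cytometry, 500–530 nm intensity and object ratio to cell channel. Percent activity normalized to 20 uM Triacsin C.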

[1] = measured here: lipid fluorescence (Fed channel) AC50, cells fed with added oleic acid
[2] = measured here: cell number channel AC50, cells fed with added oleic acid

Row | SMILES | cell number change | AC50 [1] | AC50 [2]
1 | O=C(NCCCCNC(=O)c1ccc(Br)s1)c1ccc(Br)s1 | 11.6% | 0.651 µM [falling, partial curve, poor fit] | 
2 | Cc1ccc(C)c(N2CCN(C(=O)Cc3ccc(-n4c(=O)[nH]c5ccsc5c4=O)cc3)CC2)c1 | 3.87% | 16.4 µM [rising, single point] | 
3 | CCC(NS(=O)(=O)c1ccc(OC)cc1)C(=O)NCCC1=CCCCC1 (configuration not stated) | 7.01% | 0.0058 µM [rising, full curve, poor fit] | 
4 | Cc1ccc(C(=O)C(C)OC(=O)Cc2n[nH]c(=O)c3ccccc23)cc1 (configuration not stated) | -25.8% | 0.116 µM [falling, full curve, poor fit] | 
5 | CCc1ccc(Nc2n[n+](C)c(-c3ccc(C(=O)O)cc3)s2)cc1 |  | 16.4 µM [rising, partial curve] | 
6 | COc1cc2c(C#N)c(N3CCN(c4ccccc4OC)CC3)nc(N)c2c(N)n1 | -50.8% | 29.1 µM [falling, single point] | 16.4 µM [falling, single point]
7 | Cn1c(N)c(Sc2ccc(F)cc2)c(=O)n(C)c1=O | 1.97% | 3.66 µM [falling, single point] | 
8 | CSC1=NCCN1C(=O)c1ccc(S(=O)(=O)N(C)C)cc1 | 3.68% | 7.31 µM [falling, single point] | 
9 | CCC(CC)NC(=O)COC(=O)c1ccc(OCC(=O)Nc2ccccc2OC)c(OC)c1 | 33.5% |  | 29.1 µM [rising, single point]
10 | CCN(C(=O)COC(=O)c1c(C)nn(-c2ccccc2)c1C)C1CCS(=O)(=O)C1 (configuration not stated) | -30% | 0.206 µM [falling, full curve] | 2.31 µM [falling, full curve]
11 | CCOC(=O)CNC(=O)Cn1cnc2ccc(S(=O)(=O)N3CCC(C)CC3)cc2c1=O | 16.7% |  | 
12 | N#Cc1nc(COc2ccc(Cl)cc2)oc1N1CCN(Cc2ccccc2)CC1 | 14.1% |  | 
13 | COc1cc(NC(=O)c2ccc3c(c2)C(=O)N(CCC(C)C)C3=O)c(C(=O)O)cc1OC | 1.32% |  | 
14 | Cc1c(Cl)cccc1NC(=O)Cc1cccs1 | 3.3% | 0.58 µM [rising, single point] | 
15 | CCc1sc(C(=O)Nc2cccnc2)cc1Br | -3.03% | 4.61 µM [falling, single point] | 
16 | O=C(NCc1cccnc1)C1CCCN(S(=O)(=O)c2ccc(Cl)cc2)C1 (configuration not stated) |  |  | 0.92 µM [rising, partial curve]
17 | Cc1ccc(O)c(CNc2cnc3ccccc3c2)c1 | -12.9% |  | 
18 | COC(=O)c1sc2ncn(CC(=O)N(C)C3CCCCC3)c(=O)c2c1C | 2.17% | 6.51 µM [falling, single point] | 
19 | CCCn1c(=O)c(C(=O)Nc2cccc(C)c2)c(O)c2ccccc21 | 23.6% |  | 
20 | CCC(CC)=N/N=C/c1c(O)n(CC)c2cc(C3=NNC(=O)CC3)ccc12 | -33.6% | 14.6 µM [falling, partial curve] | 14.6 µM [falling, partial curve, poor fit]
21 | COc1ccc(-c2nnc(SCc3ncc(-c4ccccc4)o3)o2)cc1 | -7.3% | 4.11 µM [rising, single point] | 

As a working copy, five of the compounds above.
Row | SMILES | cell number change | AC50 [1] | AC50 [2]
4 | Cc1ccc(C(=O)C(C)OC(=O)Cc2n[nH]c(=O)c3ccccc23)cc1 (configuration not stated) | -25.8% | 0.116 µM [falling, full curve, poor fit] | 
5 | CCc1ccc(Nc2n[n+](C)c(-c3ccc(C(=O)O)cc3)s2)cc1 |  | 16.4 µM [rising, partial curve] | 
6 | COc1cc2c(C#N)c(N3CCN(c4ccccc4OC)CC3)nc(N)c2c(N)n1 | -50.8% | 29.1 µM [falling, single point] | 16.4 µM [falling, single point]
7 | Cn1c(N)c(Sc2ccc(F)cc2)c(=O)n(C)c1=O | 1.97% | 3.66 µM [falling, single point] | 
8 | CSC1=NCCN1C(=O)c1ccc(S(=O)(=O)N(C)C)cc1 | 3.68% | 7.31 µM [falling, single point] | 

Following part.

Row | SMILES | cell number change | AC50 [1] | AC50 [2]
22 | CCCC(c1nnnn1CCc1ccccc1)N1CCN(C(=O)c2ccco2)CC1 (configuration not stated) | -11.8% | 1.84 µM [rising, partial curve, poor fit] | 
23 | COc1cccc(/C=N/Nc2nn3cnnc3c3ccccc23)c1O | 5.47% |  | 0.651 µM [falling, single point]
24 | Cc1cccc2[nH]c(-c3ccc(NC(=O)c4ccco4)cc3)nc12 | -16.9% | 0.92 µM [rising, partial curve, poor fit] | 
25 | CCOC(=O)c1ccc(N2CCN(c3ccc(F)cc3)CC2)c(NC(=O)Nc2cccc(OC)c2)c1 | 12.9% | 9.2 µM [rising, partial curve] | 
26 | CCOc1ccc(S(=O)(=O)NC(C)C(=O)NCc2cccnc2)cc1 (configuration not stated) | -6.58% | 35.5 µM [rising, single point] | 
27 | C=CCOc1c(CNc2cccc(C(=O)O)c2)cccc1OC | 1.93% | 1.3 µM [falling, partial curve] | 
28 | Cc1cc(C)c(NC(=O)c2cc(=O)c3ccccc3o2)c(C)c1 | 22.7% | 2.91 µM [rising, full curve, poor fit] | 
29 | CC1CCCN(S(=O)(=O)c2ccc(NC(=O)C3CC(=O)N(c4ccccc4)C3)cc2)C1 (configuration not stated) | -4.7% |  | 
30 | COc1ccc(CNC(=S)Nc2ccc(S(N)(=O)=O)cc2)cc1 | 16.6% | 1.16 µM [rising, single point] | 0.58 µM [rising, single point]
31 | COc1cc(NC(=S)N2CCN(C)CC2)c(OC)cc1Cl | 4.03% |  | 
32 | OC(COc1ccc2c(c1)OCO2)CN1CCCCC1 (configuration not stated) | -59.5% |  | 1.3 µM [falling, partial curve]
33 | COc1cc(OC)cc(C(=O)N2CCC(C(=O)NCCc3ccccc3)CC2)c1 | 4.4% | 32.6 µM [falling, partial curve, poor fit] | 
34 | CN(C)C=Nc1ncc2c([nH]c3ccccc32)c1C#N |  | 0.731 µM [rising, partial curve] | 1.64 µM [rising, partial curve]
35 | CCOc1ccccc1N(CC(=O)N1CCCC1)S(C)(=O)=O | 0.365% | 29.1 µM [rising, single point] | 
36 | O=C(CN1C(=O)c2ccccc2C1=O)NCCc1c[nH]c2ccc(Cl)cc12 |  | 0.58 µM [rising, single point] | 
37 | COc1ccc(NC(=O)NNC(=O)c2ccc(-c3ccccc3)cc2)cc1 | 13.9% | 11.2 µM [rising, partial curve] | 
38 | Cc1ccc(-c2csc3ncnc(Oc4ccc5c(C)cc(=O)oc5c4)c23)cc1 | 5.31% |  | 
39 | Cc1cc2nc(N)sc2cc1C | -2.74% |  | 
40 | O=C(O)COc1ccc(Br)cc1/C=N/O | 0.413% |  | 
41 | O=C1C2CC=CCC2C(=O)N1c1ccc(NCCc2ccc(O)cc2)c([N+](=O)[O-])c1 (configuration not stated) | -0.219% | 14.6 µM [falling, partial curve] | 
42 | N/C(=N\OC(=O)COc1ccc([N+](=O)[O-])cc1)c1cccnc1 | 63.4% | 3.26 µM [rising, full curve] | 2.59 µM [rising, full curve]

Row | SMILES | cell number change | AC50 [1] | AC50 [2]
43 | CCCOC(=O)Oc1ccc2c(=O)c(Oc3cc(C)cc(C)c3)coc2c1 | -17.2% |  | 0.00517 µM [falling, full curve, poor fit]
44 | CCN(CC)C(=O)C(=O)N/N=C/c1ccc(F)cc1 | 13.5% | 0.103 µM [rising, full curve, poor fit] | 
45 | O=C(Nc1ccccc1N1CCCC1)C1CC(=O)N(Cc2ccccc2)C1 (configuration not stated) |  | 0.058 µM [rising, full curve, poor fit] | 
46 | CC(C)c1c(O)nc(SCc2ccc(F)cc2)[nH]c1=O | 8.5% | 4.11 µM [rising, full curve] | 
47 | CCCn1nc(C(=O)Nc2ccc3c(c2)OCO3)c2ccccc2c1=O | 37.4% | 6.51 µM [rising, full curve] | 32.6 µM [rising, single point]
48 | N#Cc1c(N)nc2c(c1-c1ccncc1)CCCC2 | -14.7% |  | 
49 | Oc1c(Cl)cc(Cl)cc1/C=C/c1ccc2cccc(O)c2n1 |  | 0.731 µM [falling, single point] | 0.058 µM [falling, full curve, poor fit]
50 | COc1ccc(OC)c(C(c2nnnn2CCC(C)C)N2CCN(C(=O)c3ccco3)CC2)c1 (configuration not stated) | -5.68% | 3.66 µM [rising, single point] | 
51 | COc1ccc(C(=O)C(Cc2cc(C(C)=O)ccc2OC)N2CCCC2)cc1 (configuration not stated) | 43.9% | 29.1 µM [rising, single point] | 
52 | O=C(Nc1ccc2oc(-c3ccncc3)nc2c1)c1ccc(Br)o1 | 1.28% | 0.259 µM [rising, partial curve] | 
53 | CCOC(=O)c1cc(CC)sc1NC(=O)Cc1ccsc1 | 38.7% |  | 16.4 µM [rising, partial curve, poor fit]
54 | CC(C)(C)OC(=O)N1Cc2ccccc2C[C@H]1C(=O)NC1CCCC1 | 17% | 16.4 µM [rising, partial curve] | 
55 | CCc1ccc(NC(=O)C2CCCN(S(=O)(=O)c3ccc4c(c3)CCCN4C(C)=O)C2)cc1 (configuration not stated) | -22.6% | 1.16 µM [falling, partial curve, poor fit] | 
56 | CCOC(=O)c1c2n(c3ccc(OC(C)=O)cc13)CCC2 | 9.11% |  | 0.82 µM [rising, full curve, poor fit]
57 | COC(=O)c1ccc(CSCc2ccc(C(=O)OC)o2)o1 | 71.2% | 29.1 µM [rising, single point] | 6.51 µM [rising, full curve, poor fit]
58 | Cc1ccc(NC(N)=S)cc1 | 44.6% | 29.1 µM [rising, single point] | 29.1 µM [rising, single point]
59 | COc1ccc(-c2noc(-c3ccc(C)cc3)n2)cc1 | 31.7% | 11.6 µM [rising, partial curve] | 2.91 µM [rising, full curve, poor fit]
60 | O=C(COC(=O)c1sc2ccccc2c1Cl)Nc1ncc(Cl)cc1Cl | -8.04% |  | 
61 | O=C(COC(=O)/C=C/c1ccc(Cl)cc1)NCCc1ccccc1 | -6.11% | 29.1 µM [falling, partial curve, poor fit] | 
62 | Cc1ccc(-n2nc3c(=O)n(CCCC(=O)N4CCC(C(N)=O)CC4)nc(C)c3c2C)cc1 | 1.48% | 18.4 µM [rising, partial curve] | 
